No constants are given. Whether binding was seen depends on the method and setting. In cells and extracts the contact can be indirect. Some entries that bind do so weakly or less than the wild type. For some of these results: Sequences can lack the tags named with a protein.

Protein sequences, listed by entry. Tags and fused reporters are not part of them. Lines headed by an entry give the natural chain unless they say otherwise; changes in a name come on top.
UniProt Q9Y6W5: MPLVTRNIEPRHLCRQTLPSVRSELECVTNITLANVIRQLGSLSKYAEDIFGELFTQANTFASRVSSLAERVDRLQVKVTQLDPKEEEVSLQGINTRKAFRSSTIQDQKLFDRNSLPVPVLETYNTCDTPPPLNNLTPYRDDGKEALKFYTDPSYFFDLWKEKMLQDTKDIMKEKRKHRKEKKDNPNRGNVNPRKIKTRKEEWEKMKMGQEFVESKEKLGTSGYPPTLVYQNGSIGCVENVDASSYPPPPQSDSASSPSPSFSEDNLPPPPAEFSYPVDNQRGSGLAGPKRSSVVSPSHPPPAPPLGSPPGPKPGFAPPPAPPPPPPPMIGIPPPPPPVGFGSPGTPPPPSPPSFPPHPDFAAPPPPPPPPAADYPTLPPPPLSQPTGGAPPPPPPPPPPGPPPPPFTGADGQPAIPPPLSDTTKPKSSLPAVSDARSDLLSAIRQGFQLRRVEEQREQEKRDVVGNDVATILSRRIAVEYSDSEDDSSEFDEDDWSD

In assay [1] the target is WASp family Verprolin-homologous protein-2 (WAVE2), endogenous in PBLs (human (endogenous in PBLs)) (UniProt Q9Y6W5). Description: co-IP; endogenous WAVE2 immunoprecipitated from PBL lysates, blotted for Hem-1 (first immunoprecipitation).
For assay [2] the target is unchanged. Kind of assay: condition: only after boiling the immunoprecipitated proteins in SDS and re-immunoprecipitating WAVE2; co-IP; second WAVE2 immunoprecipitation after the precipitated complex was boiled 5 min in denaturation buffer (20 mM Tris-HCl pH 8, 50 mM NaCl, 5 mM DTT, 1% SDS, 1 mM sodium orthovanadate) and diluted with lysis buffer.
The next assay concerns the target YFP-WAVE2 K45R (human) (UniProt Q9Y6W5). Kind of assay: co-IP; three forms of WAVE2 (wt, K45R, Δ25-64aa) immunoprecipitated, binding to Hem-1 compared (Supplementary Fig. S4); cells not given.
The target of another assay is YFP-WAVE2 wt (human) (UniProt Q9Y6W5). The assay is described as above.

B1: Hem-1, endogenous in PBLs (protein, UniProt P55160 1-1127)
chain: MSLTSAYQHKLAEKLTILNDRGQGVLIRMYNIKKTCSDPKSKPPFLLEKSMEPSLKYINKKFPNIDVRNSTQHLGPVHREKAEIIRFLTNYYQSFVDVMEFRDHVYELLNTIDACQCHFDINLNFDFTRSYLDLIVTYTSVILLLSRIEDRRILIGMYNCAHEMLHGHGDPSFARLGQMVLEYDHPLKKLTEEFGPHTKAVSGALLSLHFLFVRRNQGAEQWRSAQLLSLISNPPAMINPANSDTMACEYLSVEVMERWIIIGFLLCHGCLNSNSQCQKLWKLCLQGSLYITLIREDVLQVHKVTEDLFSSLKGYGKRVADIKESKEHVIANSGQFHCQRRQFLRMAVKELETVLADEPGLLGPKALFAFMALSFIRDEVTWLVRHTENVTKTKTPEDYADSSIAELLFLLEGIRSLVRRHIKVIQQYHLQYLARFDALVLSDIIQNLSVCPEEESIIMSSFVSILSSLNLKQVDNGEKFEFSGLRLDWFRLQAYTSVAKAPLHLHENPDLAKVMNLIVFHSRMLDSVEKLLVETSDLSTFCFHLRIFEKMFAMTLEESAMLRYAIAFPLICAHFVHCTHEMCPEEYPHLKNHGLHHCNSFLEELAKQTSNCVLEICAEQRNLSEQLLPKHCATTISKAKNKKTRKQRQTPRKGEPERDKPGAESHRKNRSIVTNMDKLHLNLTELALTMNHVYSFSVFEHTIFPSEYLSSHLEARLNRAIVWLAGYNATTQEIVRPSELLAGVKAYIGFIQSLAQFLGADASRVIRNALLQQTQPLDSCGEQTITTLYTNWYLESLLRQASSGTIILSPAMQAFVSLPREGEQNFSAEEFSDISEMRALAELLGPYGMKFLSENLMWHVTSQIVELKKLVVENMDILVQIRSNFSKPDLMASLLPQLTGAENVLKRMTIIGVILSFRAMAQEGLREVFSSHCPFLMGPIECLKEFVTPDTDIKVTLSIFELASAAGVGCDIDPALVAAIANLKADTSSPEEEYKVACLLLIFLAVSLPLLATDPSSFYSIEKDGYNNNIHCLTKAIIQVSAALFTLYNKNIETHLKEFLVVASVSLLQLGQETDKLKTRNRESISLLMRLVVEESSFLTLDMLESCFPYVLLRNAYREVSRAFHLN
For the molecule B1, the binding entry is recorded as “binds” in assay [1] and “no binding” in assay [2].

B2: Hem-1, co-precipitated with YFP-WAVE2 forms (protein, UniProt P55160 1-1127)
chain: B1 chain
Take B2: the binding result with YFP-WAVE2 K45R (human) and in the assay with YFP-WAVE2 wt (human) was “binds” each time.

For the origin of these results see paper PMC5362955.
